Assay results published in PubChem BioAssay AID330 (DTP/NCI, 2004).
The list is a part of this screen's results and no random one: it is rich in T/C values a quarter to a half above the control, in often repeated tests (any T/C) and in doses without a T/C. Further doses and runs are listed elsewhere. T/C: endpoint of the treated group in % of that of the vehicle group. Some doses have a count of surviving animals in place of a T/C: the source holds a T/C of zero for them, seemingly a mark for toxic or unscored doses. Some survivor counts are full or nearly so, which does not show that the dose was tolerated: the source hardly ever lists a survival T/C far under the control, and the zero likely stands for such cases as well. Counts of survivors are from the toxicity check (mostly the fifth day) where no day follows; animals may have died later. Schedules are NCI's codes, read here as Q, the interval in days (D) or hours (H), X, the number of doses. Some entries hold several experiments; their values stand side by side, smallest first. Where survival is the endpoint, this PubChem deposit counts one and a half times the control or more as active, and values a quarter to a half above the control carry no call in these data; other NCI protocols may use other cut-offs.

Tested on: P388 leukemia ip, CD2F1 mice, survival T/C
Test: NCI In Vivo Anticancer Drug Screen. Data for tumor model P388 Leukemia (intraperitoneal) in CD2F1 (CDF1) mice
Details: T/C endpoint: median survival time, higher T/C = longer survival
[1] = dose: 50.0 mg/kg/injection, schedule: Q01DX009 (ip), vehicle: suspension in saline
[2] = dose: 200.0 mg/kg/injection, schedule: Q01DX009 (ip), vehicle: Klucel (hydroxypropylcellulose) (HPC)
[3] = dose: 200.0 mg/kg/injection, schedule: Q01DX005 (ip), vehicle: Klucel (hydroxypropylcellulose) (HPC)
[4] = dose: 240.0 mg/kg/injection, schedule: Q01DX005 (ip), vehicle: saline with Tween-80
[5] = dose: 32.0 mg/kg/injection, schedule: Q04DX003 (ip), vehicle: distilled water + Tween-80

## COC1/C=C/OC2(C)Oc3c(C)c(O)c4c(c3C2=O)C(=O)c2cnc(nc2C4=O)/C(C)=C\C=C\C(C)C(O)C(C)C(O)C(C)C(OC(C)=O)C1C (centres undefined)
dose: 200.0 mg/kg/injection, schedule: Q01DX009 (ip), vehicle: other
  survivor count: 3 of 5
dose: 400.0 mg/kg/injection, schedule: Q01DX009 (ip), vehicle: other
  survivor count: 0 of 5

## CN(C)[C@@H]1C(=O)C(C(=O)NCNC2(C(=O)O)CCCC2)=C(O)[C@@]2(O)C(=O)C3=C(O)c4c(O)cccc4[C@@](C)(O)[C@H]3C[C@@H]12
[1]
  survivor count: 5 of 6

## CC1(C)C[C@H]2C=C(C=O)[C@]34C[C@]3(C(=O)OC4O)[C@H]2C1 (some centres undefined)
dose: 0.39 mg/kg/injection, schedule: Q01DX009 (ip), vehicle: Klucel (hydroxypropylcellulose) (HPC)
  T/C: 126 % of control
dose: 3.12 mg/kg/injection, schedule: Q01DX009 (ip), vehicle: Klucel (hydroxypropylcellulose) (HPC)
  survivor count: 1 of 6
dose: 6.25 mg/kg/injection, schedule: Q01DX009 (ip), vehicle: Klucel (hydroxypropylcellulose) (HPC)
  survivor count: 1 of 6
dose: 12.5 mg/kg/injection, schedule: Q01DX009 (ip), vehicle: Klucel (hydroxypropylcellulose) (HPC)
  survivor count: 0 of 6
dose: 25.0 mg/kg/injection, schedule: Q01DX009 (ip), vehicle: Klucel (hydroxypropylcellulose) (HPC)
  survivor count: 0 of 6

## O=C(NCCN(C(=O)C12CC3CC(CC(C3)C1)C2)c1ccc(F)cc1)C12CC3CC(CC(C3)C1)C2
dose: 50.0 mg/kg/injection, schedule: Q01DX009 (ip), vehicle: saline with Tween-80
  survivor count: 6 of 6
dose: 100.0 mg/kg/injection, schedule: Q01DX009 (ip), vehicle: saline with Tween-80
  survivor count: 6 of 6
dose: 200.0 mg/kg/injection, schedule: Q01DX009 (ip), vehicle: saline with Tween-80
  survivor count: 6 of 6

## FC(F)(F)c1cccc(NC(=S)SCc2ccc(Cl)c(Cl)c2)c1
dose: 50.0 mg/kg/injection, schedule: Q01DX009 (ip), vehicle: saline
  survivor count: 6 of 6
dose: 100.0 mg/kg/injection, schedule: Q01DX009 (ip), vehicle: suspension in saline
  survivor count: 2 of 6

## CCOC(=O)C(CC)Oc1ccc(Cl)cc1 (centres undefined)
[2]
  survivor count: 0 of 6

## Fc1cccc(C(Nc2nncs2)Nc2nncs2)c1
[3]
  T/C: 129 and 138 % of control

## COc1cccc2c1C(=O)c1c(O)c3c(c(O)c1C2=O)C[C@@](O)(/C(C)=N\NC=O)C[C@@H]3OC1CC(N)C(O)C(C)O1 (some centres undefined)
dose: 5.0 mg/kg/injection, schedule: Q01DX001 (ip), vehicle: saline
  T/C: 145 % of control
dose: 13.3 mg/kg/injection, schedule: Q01DX009 (ip), vehicle: saline
  T/C: 145 % of control
dose: 13.3 mg/kg/injection, schedule: Q04DX003 (ip), vehicle: saline
  T/C: 145 % of control
dose: 61.7 mg/kg/injection, schedule: Q01DX001 (ip), vehicle: saline
  T/C: 145 % of control

## C=C1C(C)C2C(Cc3ccccc3)NC(=O)C23OC(=O)/C=C\CC(=O)CCC(C)C/C=C/C3C1O (centres undefined)
dose: 20.0 mg/kg/injection, schedule: Q01DX009 (ip), vehicle: Klucel (hydroxypropylcellulose) (HPC)
  survivor count: 1 of 6
dose: 40.0 mg/kg/injection, schedule: Q01DX009 (ip), vehicle: Klucel (hydroxypropylcellulose) (HPC)
  survivor count: 0 of 6

## CCCCCC(=O)C(=O)c1ccc(O)c(C)c1O
[2]
  survivor count: 6 of 6

## Fc1ccccc1C(Nc1nncs1)Nc1nncs1
dose: 120.0 mg/kg/injection, schedule: Q01DX005 (ip), vehicle: saline with Tween-80
  T/C: 127 and 129 % of control
[4]
  T/C: 145 % of control

## CCNC(=O)OCc1c(-c2ccccc2)nc2sccn12
dose: 100.0 mg/kg/injection, schedule: Q01DX001 (ip), vehicle: Klucel (hydroxypropylcellulose) (HPC)
  survivor count: 2 of 6
dose: 200.0 mg/kg/injection, schedule: Q01DX001 (ip), vehicle: Klucel (hydroxypropylcellulose) (HPC)
  survivor count: 1 of 6
dose: 400.0 mg/kg/injection, schedule: Q01DX001 (ip), vehicle: Klucel (hydroxypropylcellulose) (HPC)
  survivor count: 0 of 6

## CCCCOc1cccc2c(NCCCNCCCNc3c4ccccc4nc4c(OCCCC)cccc34)c3ccccc3nc12
dose: 5.0 mg/kg/injection, schedule: Q01DX009 (ip), vehicle: other
  survivor count: 5 of 6
dose: 10.0 mg/kg/injection, schedule: Q01DX009 (ip), vehicle: other
  survivor count: 3 of 6 and 5 of 6
dose: 20.0 mg/kg/injection, schedule: Q01DX009 (ip), vehicle: other
  survivor count: 1 of 6
dose: 40.0 mg/kg/injection, schedule: Q01DX009 (ip), vehicle: other
  survivor count: 0 of 6

## O=C(CC(Sc1ccccc1)c1cccc([N+](=O)[O-])c1)c1ccccc1 (centres undefined)
[2]
  survivor count: 2 of 6
dose: 400.0 mg/kg/injection, schedule: Q01DX009 (ip), vehicle: Klucel (hydroxypropylcellulose) (HPC)
  survivor count: 2 of 6

## CC(=O)Oc1ccc(/C=N/NC(N)=S)nc1
dose: 1.78 mg/kg/injection, schedule: Q01DX009 (ip), vehicle: saline with Tween-80
  T/C: 141 % of control
dose: 2.66 mg/kg/injection, schedule: Q01DX009 (ip), vehicle: saline with Tween-80
  T/C: 141 % of control
dose: 6.0 mg/kg/injection, schedule: Q01DX009 (ip), vehicle: saline with Tween-80
  T/C: 142 % of control
dose: 9.4 mg/kg/injection, schedule: Q01DX009 (ip), vehicle: saline with Tween-80
  T/C: 139 % of control
dose: 18.8 mg/kg/injection, schedule: Q01DX009 (ip), vehicle: saline with Tween-80
  T/C: 147 % of control

## COc1ccccc1C(O)(c1ccccc1OC)C1(O)CCN(C)CC1
[3]
  survivor count: 0 of 6

## CC1CC=CCC1C1NC(C(=O)O)CS1 (centres undefined)
[1]
  survivor count: 6 of 6

## CCOc1c(N=Nc2ccccc2C)c(C)nn1C(=S)SC
dose: 240.0 mg/kg/injection, schedule: Q01DX005 (ip), vehicle: Klucel + Tween-80
  survivor count: 5 of 6

## COc1cccc2c1C(=O)c1c(O)c3c(c(O)c1C2=O)CC(O)(C(=O)CO)CC3OC1CC(N)C(O)C(C)O1.[Cl][Pt+2][Cl].[NH2-].[NH2-] (centres undefined)
dose: 1.0 mg/kg/injection, schedule: Q04DX003 (ip), vehicle: DMSO
  T/C: 131 % of control
dose: 2.0 mg/kg/injection, schedule: Q04DX003 (ip), vehicle: DMSO
  T/C: 145 % of control
dose: 4.0 mg/kg/injection, schedule: Q04DX003 (ip), vehicle: DMSO, evaluated on day 30
  T/C: 132 % of control
dose: 4.0 mg/kg/injection, schedule: Q04DX003 (ip), vehicle: DMSO, evaluated on day 45
  T/C: 142 % of control

## Clc1ccc(-c2noc(/C=C\c3ccccc3)n2)cc1
dose: 100.0 mg/kg/injection, schedule: Q01DX009 (ip), vehicle: Klucel (hydroxypropylcellulose) (HPC)
  survivor count: 6 of 6

## CC(=O)C[n+]1ccccc1C
dose: 200.0 mg/kg/injection, schedule: Q01DX005 (ip), vehicle: saline with Tween-80
  survivor count: 3 of 5

## CC(C)c1cccc(C(C)C)c1NC(=O)Nc1cccc(C(F)(F)F)c1
dose: 60.0 mg/kg/injection, schedule: Q01DX005 (ip), vehicle: Klucel (hydroxypropylcellulose) (HPC)
  survivor count: 6 of 6
dose: 120.0 mg/kg/injection, schedule: Q01DX005 (ip), vehicle: Klucel (hydroxypropylcellulose) (HPC)
  survivor count: 6 of 6

## COc1cccc2c1C(=O)c1c(O)c3c(c(O)c1C2=O)C[C@@](O)(C(C)=O)C[C@@H]3OC1CC(N=CCCCC=NC2CC(O[C@H]3C[C@](O)(C(C)=O)Cc4c(O)c5c(c(O)c43)C(=O)c3c(OC)cccc3C5=O)OC(C)C2O)C(O)C(C)O1 (some centres undefined)
dose: 4.0 mg/kg/injection, schedule: Q04DX003 (ip), vehicle: distilled water + Tween-80
  T/C: 129 % of control
dose: 8.0 mg/kg/injection, schedule: Q04DX003 (ip), vehicle: distilled water + Tween-80
  T/C: 131 % of control
dose: 16.0 mg/kg/injection, schedule: Q04DX003 (ip), vehicle: distilled water + Tween-80
  T/C: 130 % of control
[5]
  T/C: 139 % of control
  survivor count: 6 of 6
dose: 64.0 mg/kg/injection, schedule: Q04DX003 (ip), vehicle: distilled water + Tween-80
  survivor count: 4 of 6
dose: 128.0 mg/kg/injection, schedule: Q04DX003 (ip), vehicle: distilled water + Tween-80
  survivor count: 1 of 6

## O=C(C(=O)C(F)(F)C(F)(F)C(F)(F)F)c1ccccc1
dose: 200.0 mg/kg/injection, schedule: Q01DX005 (ip), vehicle: saline + Tween-80 + alcohol
  survivor count: 3 of 6

## CC(CN1CCCCC1)NC(=O)c1scnc1-c1ccccc1 (centres undefined)
[4]
  survivor count: 1 of 6

## CCOC(=O)CCC1=C(C)c2cc3[n-]c(cc4nc(cc5[n-]c(cc1n2)c(CCC(=O)OCC)c5C)C=C4C)cc3C.[Ni+2]
[3]
  survivor count: 5 of 5
